Shown are results outside the selection of targets with a hit, which stands elsewhere. Single values of this set are uncertain. This is a selection; strong and weak results do not stand in their true shares.
compound: COC(=O)/C=C/c1ccccc1 [methyl cinnamate]; experiment: log2 ratio of iodoacetamide-alkyne labeling of the cysteine site, DMSO over compound (competition); higher = stronger covalent engagement of the cysteine by the compound, active = 1 or more; conditions: 500 µM; treatment time 1 h; system: HEK293T cell lysate
Procedure, shortened: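 Three replicates, each with duplicate channels, were prepared from HEK293T lysate (2 mg/mL) treated with vehicle or electrophile at 500 µM for 1 h at ambient temperature. Iodoacetamide alkyne was then applied for 1 h, and samples were clicked to sCIP-TMT reagents, pooled, trypsin-digested overnight at 37 °C, enriched on streptavidin, acid-eluted and analysed on Orbitrap Eclipse LC-MS/MS with FAIMS, with FragPipe quantification. The log2 competition ratio per cysteine is the mean control-channel divided by the mean compound-channel reporter intensity. Cysteines quantified in only one replicate were left out.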

Chains of the proteins cited; added tags and fusions are not shown. Lines headed by an entry give the natural chain unless they say otherwise; changes in a name come on top.
UniProt P14866: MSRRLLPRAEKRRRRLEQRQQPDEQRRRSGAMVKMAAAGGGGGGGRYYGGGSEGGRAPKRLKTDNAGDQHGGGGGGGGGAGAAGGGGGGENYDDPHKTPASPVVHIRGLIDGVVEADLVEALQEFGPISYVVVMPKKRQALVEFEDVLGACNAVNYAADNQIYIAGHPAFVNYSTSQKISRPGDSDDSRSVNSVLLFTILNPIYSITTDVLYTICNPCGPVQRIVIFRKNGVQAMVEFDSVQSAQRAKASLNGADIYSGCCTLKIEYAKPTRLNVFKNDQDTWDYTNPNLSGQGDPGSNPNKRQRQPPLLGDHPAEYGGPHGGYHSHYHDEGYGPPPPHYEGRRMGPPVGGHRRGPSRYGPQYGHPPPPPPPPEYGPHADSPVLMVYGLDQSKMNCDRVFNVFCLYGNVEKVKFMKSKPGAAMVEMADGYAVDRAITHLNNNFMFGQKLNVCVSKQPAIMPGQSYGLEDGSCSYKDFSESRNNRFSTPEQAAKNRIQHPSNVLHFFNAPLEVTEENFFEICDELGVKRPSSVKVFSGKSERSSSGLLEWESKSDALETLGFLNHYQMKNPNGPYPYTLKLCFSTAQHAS
UniProt P09382, whole entry, looked up: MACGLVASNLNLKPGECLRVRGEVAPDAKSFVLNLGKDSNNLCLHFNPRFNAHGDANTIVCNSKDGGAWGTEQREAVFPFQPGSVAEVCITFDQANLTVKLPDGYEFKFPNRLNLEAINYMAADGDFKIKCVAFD
UniProt P17174: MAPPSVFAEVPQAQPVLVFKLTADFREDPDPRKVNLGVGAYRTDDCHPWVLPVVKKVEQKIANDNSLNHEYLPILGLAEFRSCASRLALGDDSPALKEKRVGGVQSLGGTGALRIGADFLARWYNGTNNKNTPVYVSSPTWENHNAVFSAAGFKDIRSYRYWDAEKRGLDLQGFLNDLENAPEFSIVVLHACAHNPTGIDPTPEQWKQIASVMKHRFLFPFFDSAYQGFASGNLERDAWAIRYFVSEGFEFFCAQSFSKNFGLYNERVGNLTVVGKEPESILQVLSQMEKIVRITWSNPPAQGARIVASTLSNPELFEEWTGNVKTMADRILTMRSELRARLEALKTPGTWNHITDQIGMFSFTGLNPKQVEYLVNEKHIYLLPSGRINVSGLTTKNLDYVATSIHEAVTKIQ
UniProt P13807: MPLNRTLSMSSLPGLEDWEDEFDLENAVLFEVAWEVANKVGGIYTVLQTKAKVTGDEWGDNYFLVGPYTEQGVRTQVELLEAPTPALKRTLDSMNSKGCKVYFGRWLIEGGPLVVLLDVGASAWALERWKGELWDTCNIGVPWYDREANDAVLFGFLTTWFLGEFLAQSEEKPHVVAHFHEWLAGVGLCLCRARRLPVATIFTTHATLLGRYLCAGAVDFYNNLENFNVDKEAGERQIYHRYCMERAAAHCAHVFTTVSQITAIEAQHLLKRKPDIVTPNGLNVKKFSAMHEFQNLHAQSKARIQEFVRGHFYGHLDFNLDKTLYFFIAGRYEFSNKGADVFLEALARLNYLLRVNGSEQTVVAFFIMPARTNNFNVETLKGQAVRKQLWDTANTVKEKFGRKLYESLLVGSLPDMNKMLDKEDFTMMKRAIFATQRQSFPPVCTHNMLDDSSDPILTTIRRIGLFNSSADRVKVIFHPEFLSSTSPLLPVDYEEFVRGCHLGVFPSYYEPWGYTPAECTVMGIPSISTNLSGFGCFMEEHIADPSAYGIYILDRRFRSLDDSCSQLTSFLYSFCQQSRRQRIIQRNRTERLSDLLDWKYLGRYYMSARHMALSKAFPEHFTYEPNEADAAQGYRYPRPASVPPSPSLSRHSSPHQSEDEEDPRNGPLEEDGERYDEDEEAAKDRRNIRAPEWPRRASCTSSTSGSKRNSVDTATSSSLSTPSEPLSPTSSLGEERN
UniProt P09211: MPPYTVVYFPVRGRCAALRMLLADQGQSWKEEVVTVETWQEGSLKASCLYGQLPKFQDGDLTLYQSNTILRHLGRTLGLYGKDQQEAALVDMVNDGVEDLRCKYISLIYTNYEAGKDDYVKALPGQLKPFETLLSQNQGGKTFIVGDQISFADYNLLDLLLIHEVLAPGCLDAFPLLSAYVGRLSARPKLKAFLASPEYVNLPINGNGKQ
UniProt P0DMV8, whole entry, looked up: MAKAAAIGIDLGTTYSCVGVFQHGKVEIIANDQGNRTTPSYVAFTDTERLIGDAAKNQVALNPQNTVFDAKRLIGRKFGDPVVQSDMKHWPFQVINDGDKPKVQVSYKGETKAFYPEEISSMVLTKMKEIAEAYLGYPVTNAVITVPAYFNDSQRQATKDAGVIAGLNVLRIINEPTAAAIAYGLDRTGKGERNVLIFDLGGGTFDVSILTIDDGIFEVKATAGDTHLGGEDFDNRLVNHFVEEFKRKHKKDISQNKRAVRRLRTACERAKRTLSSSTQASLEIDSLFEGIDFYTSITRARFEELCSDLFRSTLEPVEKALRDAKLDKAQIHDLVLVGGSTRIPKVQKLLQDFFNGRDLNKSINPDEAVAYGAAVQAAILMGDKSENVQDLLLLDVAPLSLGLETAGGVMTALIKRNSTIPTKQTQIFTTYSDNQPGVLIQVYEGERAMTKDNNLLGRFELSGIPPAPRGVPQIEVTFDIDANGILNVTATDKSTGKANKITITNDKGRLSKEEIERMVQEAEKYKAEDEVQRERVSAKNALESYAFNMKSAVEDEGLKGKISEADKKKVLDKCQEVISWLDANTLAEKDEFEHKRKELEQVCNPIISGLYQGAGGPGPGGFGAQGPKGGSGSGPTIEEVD
UniProt P10599: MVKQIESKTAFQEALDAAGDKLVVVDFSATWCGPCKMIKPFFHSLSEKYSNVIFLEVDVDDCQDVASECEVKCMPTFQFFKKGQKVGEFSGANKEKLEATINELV
UniProt P14618, whole entry, looked up: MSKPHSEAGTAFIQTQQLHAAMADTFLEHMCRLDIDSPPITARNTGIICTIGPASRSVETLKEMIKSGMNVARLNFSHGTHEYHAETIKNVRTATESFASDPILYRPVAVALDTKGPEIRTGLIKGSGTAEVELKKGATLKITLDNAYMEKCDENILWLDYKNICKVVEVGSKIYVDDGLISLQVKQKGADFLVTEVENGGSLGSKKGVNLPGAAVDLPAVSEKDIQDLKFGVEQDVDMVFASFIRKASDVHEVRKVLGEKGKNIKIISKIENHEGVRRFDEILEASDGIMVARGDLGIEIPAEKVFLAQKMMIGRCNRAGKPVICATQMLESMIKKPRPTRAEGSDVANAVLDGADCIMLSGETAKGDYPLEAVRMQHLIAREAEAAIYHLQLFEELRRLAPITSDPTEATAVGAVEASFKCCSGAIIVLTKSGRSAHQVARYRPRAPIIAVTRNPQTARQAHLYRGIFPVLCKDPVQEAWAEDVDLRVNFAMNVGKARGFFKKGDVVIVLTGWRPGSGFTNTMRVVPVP
UniProt P08621, whole entry: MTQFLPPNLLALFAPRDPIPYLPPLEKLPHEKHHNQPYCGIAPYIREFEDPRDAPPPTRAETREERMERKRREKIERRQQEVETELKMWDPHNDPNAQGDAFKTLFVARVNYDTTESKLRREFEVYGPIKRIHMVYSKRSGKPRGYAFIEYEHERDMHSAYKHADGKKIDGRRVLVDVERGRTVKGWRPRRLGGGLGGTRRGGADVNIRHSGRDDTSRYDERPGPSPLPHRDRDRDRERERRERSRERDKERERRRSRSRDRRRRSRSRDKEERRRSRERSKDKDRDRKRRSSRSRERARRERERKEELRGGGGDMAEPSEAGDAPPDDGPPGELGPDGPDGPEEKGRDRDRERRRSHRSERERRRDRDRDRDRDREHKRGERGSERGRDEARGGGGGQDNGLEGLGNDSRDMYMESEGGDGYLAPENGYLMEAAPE
UniProt P13196: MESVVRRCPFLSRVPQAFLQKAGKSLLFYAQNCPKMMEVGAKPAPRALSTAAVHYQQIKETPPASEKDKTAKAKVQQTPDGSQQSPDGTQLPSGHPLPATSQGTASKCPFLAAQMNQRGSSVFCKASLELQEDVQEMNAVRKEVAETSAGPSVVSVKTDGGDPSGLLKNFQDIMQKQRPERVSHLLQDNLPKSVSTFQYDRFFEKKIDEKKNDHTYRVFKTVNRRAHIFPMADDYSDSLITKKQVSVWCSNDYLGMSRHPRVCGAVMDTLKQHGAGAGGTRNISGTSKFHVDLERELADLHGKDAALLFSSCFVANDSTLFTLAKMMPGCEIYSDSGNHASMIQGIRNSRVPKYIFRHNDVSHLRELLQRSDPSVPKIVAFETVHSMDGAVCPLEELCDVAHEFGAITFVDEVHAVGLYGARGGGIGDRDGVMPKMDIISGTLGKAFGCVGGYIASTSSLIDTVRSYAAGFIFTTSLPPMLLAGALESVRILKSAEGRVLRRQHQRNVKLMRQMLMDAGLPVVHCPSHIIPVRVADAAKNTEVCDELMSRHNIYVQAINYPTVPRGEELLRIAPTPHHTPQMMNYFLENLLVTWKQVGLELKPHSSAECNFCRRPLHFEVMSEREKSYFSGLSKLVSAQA
UniProt P14735, whole entry, looked up: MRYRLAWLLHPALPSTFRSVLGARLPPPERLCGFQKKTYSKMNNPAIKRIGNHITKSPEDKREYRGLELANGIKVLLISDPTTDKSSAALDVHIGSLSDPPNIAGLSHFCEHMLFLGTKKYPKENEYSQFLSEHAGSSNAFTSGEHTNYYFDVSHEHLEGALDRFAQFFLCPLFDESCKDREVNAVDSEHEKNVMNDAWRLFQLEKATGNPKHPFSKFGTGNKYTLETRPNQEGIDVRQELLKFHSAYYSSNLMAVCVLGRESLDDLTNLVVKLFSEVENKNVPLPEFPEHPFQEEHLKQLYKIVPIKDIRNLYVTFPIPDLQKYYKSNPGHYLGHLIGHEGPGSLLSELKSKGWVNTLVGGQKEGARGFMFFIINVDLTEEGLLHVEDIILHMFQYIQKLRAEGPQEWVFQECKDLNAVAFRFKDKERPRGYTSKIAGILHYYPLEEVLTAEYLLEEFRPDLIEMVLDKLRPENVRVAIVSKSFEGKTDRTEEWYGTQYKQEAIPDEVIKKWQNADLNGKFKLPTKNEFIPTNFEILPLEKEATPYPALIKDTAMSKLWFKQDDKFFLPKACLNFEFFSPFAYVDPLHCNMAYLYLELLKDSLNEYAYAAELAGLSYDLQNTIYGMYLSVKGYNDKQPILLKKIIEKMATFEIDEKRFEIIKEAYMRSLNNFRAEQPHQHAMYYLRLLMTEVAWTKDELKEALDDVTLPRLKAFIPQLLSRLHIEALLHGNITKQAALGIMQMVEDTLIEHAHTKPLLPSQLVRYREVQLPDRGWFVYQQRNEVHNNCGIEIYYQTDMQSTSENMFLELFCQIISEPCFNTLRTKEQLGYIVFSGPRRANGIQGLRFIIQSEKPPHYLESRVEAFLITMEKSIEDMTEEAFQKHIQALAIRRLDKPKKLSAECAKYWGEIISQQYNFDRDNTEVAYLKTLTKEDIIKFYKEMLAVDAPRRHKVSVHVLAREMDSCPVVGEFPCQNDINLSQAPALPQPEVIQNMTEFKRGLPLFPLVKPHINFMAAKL
UniProt P17812: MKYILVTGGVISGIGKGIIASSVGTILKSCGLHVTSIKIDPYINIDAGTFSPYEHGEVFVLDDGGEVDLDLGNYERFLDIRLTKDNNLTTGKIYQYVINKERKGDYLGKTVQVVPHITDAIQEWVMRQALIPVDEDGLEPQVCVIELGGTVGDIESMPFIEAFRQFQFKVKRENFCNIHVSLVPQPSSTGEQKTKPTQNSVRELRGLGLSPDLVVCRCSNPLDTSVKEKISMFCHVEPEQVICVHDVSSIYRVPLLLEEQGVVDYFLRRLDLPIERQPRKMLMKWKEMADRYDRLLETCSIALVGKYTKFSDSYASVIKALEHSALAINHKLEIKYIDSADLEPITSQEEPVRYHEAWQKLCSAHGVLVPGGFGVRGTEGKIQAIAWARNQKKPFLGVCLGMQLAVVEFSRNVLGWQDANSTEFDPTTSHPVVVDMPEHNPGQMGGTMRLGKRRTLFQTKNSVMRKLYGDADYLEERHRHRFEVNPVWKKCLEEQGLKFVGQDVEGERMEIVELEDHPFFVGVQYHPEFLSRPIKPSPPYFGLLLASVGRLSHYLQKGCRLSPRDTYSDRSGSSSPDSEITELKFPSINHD
UniProt P08670, whole entry: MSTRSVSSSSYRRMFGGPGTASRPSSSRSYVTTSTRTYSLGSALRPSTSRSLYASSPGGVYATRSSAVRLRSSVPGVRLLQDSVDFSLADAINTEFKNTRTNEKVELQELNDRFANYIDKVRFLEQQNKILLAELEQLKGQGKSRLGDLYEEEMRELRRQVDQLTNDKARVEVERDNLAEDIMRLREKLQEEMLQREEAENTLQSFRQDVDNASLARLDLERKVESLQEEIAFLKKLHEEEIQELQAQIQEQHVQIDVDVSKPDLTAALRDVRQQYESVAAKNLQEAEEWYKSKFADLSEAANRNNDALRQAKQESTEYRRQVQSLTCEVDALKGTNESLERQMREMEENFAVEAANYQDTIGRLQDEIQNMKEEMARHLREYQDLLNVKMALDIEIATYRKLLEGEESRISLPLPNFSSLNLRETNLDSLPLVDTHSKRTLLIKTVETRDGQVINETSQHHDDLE

log2 ratio of iodoacetamide-alkyne labeling, inactive:
IRF2 C83 (UniProt P14316) -0.113
RPS2 C143 (UniProt P15880) 0.107
HNRNPL C396 (UniProt P14866) 0.165
RPS2 C222 (UniProt P15880) 0.0555
ATP2A2 C560 (UniProt P16615) 0.00044
LGALS1 C17 (UniProt P09382) 0.292
GOT1 C46 (UniProt P17174) 0.0275
EEF2 C728 (UniProt P13639) 0.112
DARS C349 (UniProt P14868) -0.0649
PYGB C496 (UniProt P11216) 0.322
GYS1 C699 (UniProt P13807) 0.411
GSTP1 C48 (UniProt P09211) 0.014
EEF2 C812 (UniProt P13639) -0.0064
NR2C1 C265 (UniProt P13056) 0.0452
CDK4 C215 (UniProt P11802) 0.157
NME1 C145 (UniProt P15531) 0.119
PLS3 C621 (UniProt P13797) 0.0225
UniProt P0DMV8_C574 0.154
TXN C35 (UniProt P10599) 0.214
UniProt P14618_C474 0.159
CTSB C319 (UniProt P07858) 0.166
SNRNP70 C39 (UniProt P08621) 0.359
ALAS1 C249 (UniProt P13196) 0.235
IDE C966 (UniProt P14735) 0.103
UniProt P17812_C491 0.245
TXN C73 (UniProt P10599) 0.237
PDIA4 C555 (UniProt P13667) 0.127
PPP3CB C477 (UniProt P16298) 0.3
IMPDH2 C173 (UniProt P12268) 0.0573
LGALS1 C43 (UniProt P09382) -0.195
UniProt P17812_C216 -0.0432
MTHFD1 C918 (UniProt P11586) -0.0804
HSP90AB1 C521 (UniProt P08238) 0.218
MTHFD1 C147 (UniProt P11586) 0.1
VIM C328 (UniProt P08670) 0.0263
GYS1 C575 (UniProt P13807) 0.327
EEF2 C136 (UniProt P13639) 0.00515

Retrieved one by one from the list above (three):
log2 ratio of iodoacetamide-alkyne labeling, inactive:
TXN C73 (UniProt P10599) 0.237
GOT1 C46 (UniProt P17174) 0.0275
EEF2 C728 (UniProt P13639) 0.112

From the supplement of paper PMC11006884
